The whole screen tested about 1,200 compounds, of which about 140 (12%) were called active.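 The calls were made as follows: active = fitted curve falls past -35% activity change at a dose under twice the top valid dose, in every replicate test; inconclusive = replicate tests disagree on the call; inactive = the rest, including activity in the opposite direction.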 This part holds few or none of the hits.

This test is described as follows: CFTR-F508del correctors, dose response, FRT cells, YFP quenching, cherry-pick (AID 743402).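 Also: compounds act as correctors raising surface CFTR-F508del before acute activation.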 The following applies: FRT CFTR-F508del YFP iodide quenching, 24 h, channel opened with forskolin and a potentiator; at 26 µM (top of the series) unless noted.
`O=C(NCc1ccccc1)C1Cc2c(-c3cccc(F)c3)ccnc2O1` (configuration not stated): the activity change, negative = more quenching (active) was inactive: 0%.

For `C1CCC(C(CC2CCCCN2)C2CCCCC2)CC1` (configuration not stated), the activity change, negative = more quenching (active) is inactive: -23.3%.

Regarding `CN(C)CCn1c2ccccc2c2nc3ccc([N+](=O)[O-])cc3cc21`, the activity change, negative = more quenching (active) was inactive: -32.1%.

In the case of `Cc1ccc(-c2csc(Nc3ccccn3)n2)cc1`, the activity change, negative = more quenching (active) was inactive: -29%.

Regarding `COc1ccc(CCC(=O)N2CCN(S(=O)(=O)c3ccc(OC(F)(F)F)cc3)CC2)cc1`, the activity change, negative = more quenching (active) is inactive: 13.3%.

As for `NS(=O)(=O)c1ccc(CNc2ccc3ccccc3n2)cc1`, the activity change, negative = more quenching (active) is inactive: 3.12%.

`O=C(Nc1ccn(CCCNC2CCN(Cc3ccccc3)CC2)c(=O)n1)OCc1ccccc1`: the activity change, negative = more quenching (active) is inactive: 12.5%.

Take `COc1ccccc1NS(=O)(=O)c1cc(N=N/C(C(=O)Nc2ccc(Cl)cc2)=C(/C)O)ccc1C`: the activity change, negative = more quenching (active) is inactive: 3.33%.

For the compound `CN(CC1CCCO1)S(=O)(=O)c1ccc(C(=O)Nc2nnc(-c3ccccc3)o2)cc1` (configuration not stated), the activity change, negative = more quenching (active) is inactive: -1.85%.

For the compound `COc1cc(-c2noc(C)c2C#Cc2ccccn2)cc(OC)c1OC`, the activity change, negative = more quenching (active) was inactive: -6.25%.

With `O=C(c1ccc(S(=O)(=O)NCC2CCCO2)cc1)N1CCN(c2cccc(Cl)c2)CC1` (configuration not stated), the activity change, negative = more quenching (active) was inactive: 13.3%.

In the case of `Cc1cc2oc(=O)cc(-c3ccccc3)c2c(C)c1-c1ccc(O)cc1`, the activity change, negative = more quenching (active) is inactive: -14.3%.

`CC(=O)Nc1ccc(S(=O)(=O)Nc2cccc(-c3nc4cc(C)ccc4o3)c2)cc1`: the activity change, negative = more quenching (active) was inactive: -6.67%.

With `COc1cccc(/C=N/NC(=O)C(=O)N/N=C/c2cccc(OC)c2O)c1O`, the activity change, negative = more quenching (active) was inactive: -12.2%.

Turning to `CS(=O)(=O)N1CC(=O)N2[C@H](C1)[C@H](c1ccc(C#Cc3ccc(F)cc3)cc1)[C@@H]2CO`, the activity change, negative = more quenching (active) was inactive: -3.12%.

With `COc1cccc(C2c3cc4c(cc3OC(NNC(N)=O)C2C)OCO4)c1O` (configuration not stated), the activity change, negative = more quenching (active) is inactive: 3.12%.

Take `O=C1C=CC(O)(c2cc(=O)c3c(O)cc(O)cc3o2)C=C1`: the activity change, negative = more quenching (active) was inactive: 10%.

Regarding `Cc1ccc(C)c(C2NC(=O)c3ccccc3N2)c1` (configuration not stated), the activity change, negative = more quenching (active) was inactive: -3.85%.

Take `CC(=O)Nc1cccc(NC(=O)CN2c3cccc4cccc(c34)S2(=O)=O)c1`: the activity change, negative = more quenching (active) was inactive: 0%.

For the compound `CC1=C(C(=O)N(C)C)CC(CC(=O)NCc2cccc3ccccc23)C(=O)N1CCCN1CCCC1=O` (configuration not stated), the activity change, negative = more quenching (active) was inactive: 21.4%.

As to `O=C(Cc1ccccc1)N1CC(=O)N2[C@H](CO)[C@@H](c3ccc(-c4ccccc4)cc3)[C@@H]2C1`, the activity change, negative = more quenching (active) was inactive: -12.3%.

Regarding `O=C(c1cccc(S(=O)(=O)N2CCOCC2)c1)N1CCCC(C(F)(F)F)C1` (configuration not stated), the activity change, negative = more quenching (active) was inactive: 9.58%.

On to `CCc1ccc(OCc2n[nH]c(=S)n2C(C)CCCC(C)C)cc1` (configuration not stated), for which the activity change, negative = more quenching (active) was inactive: 6.46%.

Consider `CC(C)NC(=O)NC(=O)COC(=O)c1ccc(S(=O)(=O)Nc2ccccc2)cc1`, for which the activity change, negative = more quenching (active) was inactive: 0%.

For the compound `COc1ccc(NC(=O)N(C)C[C@H]2Oc3c(cccc3N(C)C)C(=O)N([C@H](C)CO)C[C@H]2C)cc1`, the activity change, negative = more quenching (active) is inactive: -3.12%.

`COc1ccc(C=NNC(=O)CCCC(=O)NN=Cc2ccc(OC)c(O)c2)cc1O`: the activity change, negative = more quenching (active) was inactive: 3.85%.

For the compound `C[C@H]1CN([C@@H](C)CO)S(=O)(=O)c2ccc(C#Cc3ccccc3F)cc2O[C@H]1CN(C)C(=O)c1ccc2c(c1)OCO2`, the activity change, negative = more quenching (active) was inactive: 0%.

Regarding `CN(C)C(=O)C(CCN1CCC(O)(c2ccc(Cl)cc2)CC1)(c1ccccc1)c1ccccc1`, the activity change, negative = more quenching (active) was inactive: 0%.

In the case of `COc1ccc(Cl)cc1NC(=O)CN(C)CC(=O)Nc1cc(OC)c(OC)c(OC)c1`, the activity change, negative = more quenching (active) is inactive: 16.7%.

Consider `Cc1ccc(CN(C)CC(=O)Nc2cccc([N+](=O)[O-])c2)o1`, for which the activity change, negative = more quenching (active) is inactive: 6.46%.

In the case of `Cc1cccc(CC(=O)Nc2cccnc2)c1`, the activity change, negative = more quenching (active) is inactive: 9.79%.

Turning to `c1coc(-c2nc3ccccc3s2)c1`, the activity change, negative = more quenching (active) is inactive: 9.38%.

As for `NS(=O)(=O)c1ccc(S(=O)(=O)N(CCc2ccccc2)Cc2ccccn2)cc1`, the activity change, negative = more quenching (active) was inactive: 0%.

As to `O=C(C1CCCCC1)N1CC(=O)N2[C@@H](CO)[C@H](c3ccc(C#Cc4cccc(F)c4)cc3)[C@@H]2C1`, the activity change, negative = more quenching (active) is inactive: -14.3%.

`O=C(CCNS(=O)(=O)c1cccc(C(F)(F)F)c1)NC1CC1`: the activity change, negative = more quenching (active) is inactive: 0.208%.

For the compound `CCOC(=O)c1cnc(COc2ccc(OC)cc2)[nH]c1=O`, the activity change, negative = more quenching (active) is inactive: 18.7%.

As to `O=C(C[C@@H]1CC[C@@H]2[C@H](COC[C@H](O)CN2Cc2ccc(Oc3ccccc3)cc2)O1)N1CCN(c2ccccc2)CC1`, the activity change, negative = more quenching (active) was inactive: -7.14%.

For `COc1ccc(-c2ccc3oc(-c4ccc(OC)cc4)c(C#CCO)c3c2)cc1`, the activity change, negative = more quenching (active) is inactive: 1.61%.

`COc1ccc(CCNc2c3ccccc3nc3ccccc23)cc1OC`: the activity change, negative = more quenching (active) was inactive: -2.92%.

For `CC(C(=O)O)N(C(=O)c1ccccc1)c1ccc(F)cc1` (configuration not stated), the activity change, negative = more quenching (active) was inactive: 6.67%.

As to `CCc1nc(C)cn1S(=O)(=O)c1ccc2c(c1)OCCO2`, the activity change, negative = more quenching (active) was inactive: 0%.

With `CC(=O)O[C@H]1C(=O)[C@@]2(C)C([C@H](OC(=O)c3ccccc3)[C@]3(O)C[C@H](OC(=O)[C@H](O)[C@@H](NC(=O)c4ccccc4)c4ccccc4)C(C)=C1C3(C)C)[C@]1(OC(C)=O)CO[C@@H]1C[C@H]2O` (some centres not stated), the activity change, negative = more quenching (active) is inactive: 6.97%.

Source of the values: PubChem BioAssay AID743402 (Broad Institute, 2014).
